In PubChem BioAssay AID1487 (National Center for Advancing Translational Sciences (NCATS), 2009):
Values joined by “and” are separate entries in the source; they are usually repeats but may differ in a detail not shown here. Equal entries are not always repeated. The list shows a part of the results. The main result of the screen is listed elsewhere. These columns were measured beside it and carry no call. The list favours compounds with an active or inconclusive main result. Potencies come from curve fits of mixed quality, noted in brackets.

Assay: qHTS Assay for Modulators of Lamin A Splicing
Details: HeLa LMNA splicing GFP/RFP minigene ratio, 48 h
Procedure, shortened: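 Read-out is the ratio of GFP to DsRed2 object intensity, acquired by 488 nm laser-scanning cytometry on HeLa lamin A-EGFP minigene reporter cells. Compound incubation 48 hrs at 37 °C in Opti-MEM with 2% FBS; DMSO 0.5% final.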

[1] = measured here: RFP viability control channel
[2] = measured here: GFP splicing reporter channel

SMILES	AC50 [1]	AC50 [2]
COc1ccc(C(=O)c2cnc3cc4c(cc3c2C)OCO4)cc1	22.4 µM [rising, single point]	–
Cc1sc2nc(CN3CCOCC3)[nH]c(=S)c2c1C	5.62 µM [rising, single point]	–
Cn1c(=O)c(-c2ccccc2)c(O)c2ccccc21	0.708 µM [rising, full curve]	0.794 µM [rising, full curve, poor fit]
COC1=C(OC)C(=O)C(CCCCCCCCCCO)=C(C)C1=O	31.6 µM [falling, partial curve, poor fit] and 22.4 µM [falling, partial curve, poor fit]	20 µM [falling, partial curve, poor fit] and 17.8 µM [falling, partial curve]
CC(C)(C)c1ccc(/C=N/NC(=S)NC2CCCCC2)cc1	20 µM [rising, partial curve]	12.6 µM [rising, partial curve]
O=C(c1ccc(CS(=O)(=O)c2cccc(C(F)(F)F)c2)o1)N1CCN(c2ccccn2)CC1	10 µM [rising, partial curve, poor fit]	–
C(#Cc1ccc(C#CCN2CCCC2)cc1)CN1CCCC1	3.55 µM [rising, full curve, poor fit]	–
FC(F)(F)c1nnc2c(Sc3ccc(Cl)cc3)nc3ccccc3n12	6.31 µM [falling, full curve]	5.01 µM [falling, full curve]
CCN(CC)S(=O)(=O)c1ccc(N2CCOCC2)c(NC(=O)Cc2ccccc2F)c1	5.01 µM [rising, single point]	–
O=C(Nc1ccccc1Cl)c1ccc(F)c(S(=O)(=O)NCc2ccc(Cl)c(Cl)c2)c1	35.5 µM [rising, single point]	–
Cc1ccc(N2C(=O)C3C4C=CC(CNC(=S)N5CCN(c6cccc(C)c6)C(C)C5)(O4)C3C2=O)cc1 (stereo not given)	5.01 µM [rising, partial curve, poor fit]	–
OB(O)O	0.0447 µM [rising, full curve, poor fit]	–
Cc1c(C(=O)c2ccccc2)c2ccccn2c1CCc1ccccn1	–	0.112 µM [falling, full curve, poor fit]
CCOc1ccc2nc(NC(=O)CN3CCN(c4ccccn4)CC3)sc2c1	14.1 µM [rising, partial curve]	–
CN(C(=O)CSc1nnc(-c2cccs2)o1)C1CCS(=O)(=O)C1 (stereo not given)	–	6.31 µM [rising, partial curve, poor fit]
CN(C)/C=C/C(=O)c1nnn(C2CCCCC2)c1NC1CCCCC1	15.8 µM [rising, partial curve]	14.1 µM [rising, partial curve]
CCCn1c(SCC(=O)Nc2cccc(NC(C)=O)c2)nnc1C(C)C	25.1 µM [rising, single point]	15.8 µM [rising, single point]
CCOc1ccc(NC(=S)Nc2cccc3cnccc23)cc1	5.62 µM [rising, full curve]	–
Cc1ccc(OCCOc2cccc(Br)c2)c([N+](=O)[O-])n1	25.1 µM [rising, single point]	14.1 µM [rising, single point]

SMILES	AC50 [1]	AC50 [2]
O=C(Cn1nnc(-c2ccc(Cl)cc2)n1)NC1CC2CCC1C2 (stereo not given)	14.1 µM [rising, single point]	–
COc1ccc(C2CC(c3ccccc3)=NN2c2ccc(N)cc2)cc1 (stereo not given)	14.1 µM [rising, single point]	35.5 µM [rising, single point]
CCc1ccc(NC2CC(=O)N(CCc3ccc(OC)c(OC)c3)C2=O)cc1 (stereo not given)	–	2.24 µM [rising, single point]
CC1CCN(S(=O)(=O)c2ccc3c(ccc(=O)n3CC(=O)NCc3ccccc3)c2)CC1	28.2 µM [falling, partial curve]	10 µM [falling, partial curve]
COc1ccccc1NC(=O)C1=C(C)Nc2nnnn2C1c1cc(Br)ccc1OC (stereo not given)	–	35.5 µM [falling, single point]
CC1CCCCC1NC(=O)/C(C#N)=C/c1ccc(F)c(F)c1 (stereo not given)	25.1 µM [rising, single point]	14.1 µM [rising, single point]
Cc1ccc(C)c(NC(=O)CSc2nnc(NC(=O)Nc3ccccc3)s2)c1	12.6 µM [falling, partial curve, poor fit]	–
Clc1ccccc1-c1nccc(NCc2ccccc2)n1	–	11.2 µM [falling, partial curve]
C=C1C(=O)OC2C[C@@]3(C)CCCC(C)C3=CC12 (stereo not given in full)	7.08 µM [falling, partial curve]	3.55 µM [falling, full curve]
CCN1CCN(Cc2nc3cc(NC(=O)c4cccc([N+](=O)[O-])c4)ccc3n2CC)CC1	–	0.178 µM [falling, full curve, poor fit]
CS(=O)(=O)Nc1ccc(Cc2ccc(NS(C)(=O)=O)cc2)cc1	15.8 µM [rising, single point]	–
Cc1cccnc1Nc1nc(-c2ccccn2)cs1	0.891 µM [rising, full curve]	–
O=C(N/N=C\c1cccc(Cl)c1)c1n[nH]c2c1CCCC2	15.8 µM [rising, partial curve, poor fit]	–
Brc1ccc(-c2nnc3n2-c2ccccc2CC3)cc1	–	12.6 µM [rising, single point]
Cc1cc(/C=C2\SC(=S)N(Cc3ccco3)C2=O)c(C)n1-c1ccccc1	15.8 µM [rising, partial curve]	6.31 µM [rising, partial curve]
COc1ccccc1CCn1c(=O)c(-c2cccs2)nc2cncnc21	–	10 µM [falling, partial curve]
COc1cc([N+](=O)[O-])ccc1NC(=O)Cc1ccccc1	11.2 µM [falling, partial curve]	–
Cc1cccc(-c2nc(C#N)c(NC3CCCCC3)o2)c1	14.1 µM [rising, single point]	–
N#C/C(=C\c1ccc(N2CCCCC2)o1)C(N)=O	35.5 µM [falling, single point]	–

SMILES	AC50 [1]	AC50 [2]
O=C(c1ccc(Cl)cc1)N1CCC(c2nc(-c3cccs3)no2)CC1	35.5 µM [rising, single point]	15.8 µM [rising, single point]
OCc1cn(-c2ccccc2)nc1-c1ccc2c(c1)OCCO2	35.5 µM [rising, single point]	–
CCN[C@@H]1C[C@H](C)S(=O)(=O)c2sc(S(N)(=O)=O)cc21	0.224 µM [falling, full curve]	0.398 µM [falling, full curve]
CCCCOCCCNc1ncnc2c1[nH]c1ccccc12	5.01 µM [rising, full curve]	–
O=C(/C=C/c1ccc(Cl)cc1Cl)NCCSc1ccccc1	17.8 µM [rising, single point]	35.5 µM [rising, single point]
O=C(NNC(=O)c1c(F)cccc1F)c1ccccc1-n1cccc1	–	6.31 µM [rising, single point]
Cc1ccc2cc(CN(CC3CCCO3)C(=S)Nc3ccccc3)c(=O)[nH]c2c1C (stereo not given)	5.01 µM [rising, single point]	–
COC(=O)c1c(C)oc2ccc(N(C(=O)Oc3ccccc3)S(=O)(=O)c3ccc(Cl)c([N+](=O)[O-])c3)cc12	14.1 µM [rising, partial curve]	–
O=C(c1ccccc1F)N1CCN(c2ccc([N+](=O)[O-])c(NCC3CCCO3)c2)CC1 (stereo not given)	5.62 µM [falling, partial curve, poor fit]	3.55 µM [falling, single point]
Cc1ccc(-n2cccc2/C=C2/C(=N)N3C(=NC2=O)SN=C3S(C)(=O)=O)cc1	–	5.62 µM [rising, partial curve, poor fit]
COc1cc(CN2CCN(c3cccc(Cl)c3)CC2)cc(OC)c1OC	7.08 µM [rising, partial curve]	–
Cc1cc(C(=O)COC(=O)c2ccc(N)c([N+](=O)[O-])c2)c(C)n1-c1ccc2c(c1)OCO2	14.1 µM [rising, partial curve]	8.91 µM [rising, partial curve]
O=C(/C=C/c1ccco1)N1CCCC(c2ccccc2)C1 (stereo not given)	31.6 µM [falling, single point]	–
COc1ccc(/C=C/C(=O)c2c(O)c(OC)c3occc3c2OC)cc1	35.5 µM [falling, single point]	11.2 µM [falling, partial curve, poor fit]
CCCCCCS(=O)[C@H]1CS(=O)(=O)C[C@@H]1S(=O)CCCCCC (stereo not given in full)	35.5 µM [falling, single point]	–
Cc1c(C(=O)NCCCN2CCOCC2)oc2c1C1(CCC2)SCCS1	5.01 µM [rising, partial curve]	–
C=CCn1c(SCc2csc(-c3ccc(C)cc3)n2)nnc1-c1ccccc1OC	12.6 µM [rising, partial curve, poor fit]	–
Clc1ccc(COc2ccccc2-c2ccnc3ncnn23)cc1	0.794 µM [rising, full curve, poor fit]	0.794 µM [rising, full curve, poor fit]

3 records drawn at random from the list so far:
SMILES	AC50 [1]	AC50 [2]
O=C(c1ccc(Cl)cc1)N1CCC(c2nc(-c3cccs3)no2)CC1	35.5 µM [rising, single point]	15.8 µM [rising, single point]
O=C(/C=C/c1ccco1)N1CCCC(c2ccccc2)C1 (stereo not given)	31.6 µM [falling, single point]	–
COc1ccc(/C=C/C(=O)c2c(O)c(OC)c3occc3c2OC)cc1	35.5 µM [falling, single point]	11.2 µM [falling, partial curve, poor fit]
